Laboratory results taken from doi:10.1101/2024.01.10.574961.
Results are given in words; binding and its absence hold for the method and conditions named. Binding seen in cells or lysates may run through a third protein. A result given as binding can be weak or reduced; the word gives no strength. Tags and fused reporters may be left off the sequences shown.

Chains of the proteins cited; added tags and fusions are not shown. Lines headed by an entry give the natural chain unless they say otherwise; changes in a name come on top.
UniProt Q9Y7U6: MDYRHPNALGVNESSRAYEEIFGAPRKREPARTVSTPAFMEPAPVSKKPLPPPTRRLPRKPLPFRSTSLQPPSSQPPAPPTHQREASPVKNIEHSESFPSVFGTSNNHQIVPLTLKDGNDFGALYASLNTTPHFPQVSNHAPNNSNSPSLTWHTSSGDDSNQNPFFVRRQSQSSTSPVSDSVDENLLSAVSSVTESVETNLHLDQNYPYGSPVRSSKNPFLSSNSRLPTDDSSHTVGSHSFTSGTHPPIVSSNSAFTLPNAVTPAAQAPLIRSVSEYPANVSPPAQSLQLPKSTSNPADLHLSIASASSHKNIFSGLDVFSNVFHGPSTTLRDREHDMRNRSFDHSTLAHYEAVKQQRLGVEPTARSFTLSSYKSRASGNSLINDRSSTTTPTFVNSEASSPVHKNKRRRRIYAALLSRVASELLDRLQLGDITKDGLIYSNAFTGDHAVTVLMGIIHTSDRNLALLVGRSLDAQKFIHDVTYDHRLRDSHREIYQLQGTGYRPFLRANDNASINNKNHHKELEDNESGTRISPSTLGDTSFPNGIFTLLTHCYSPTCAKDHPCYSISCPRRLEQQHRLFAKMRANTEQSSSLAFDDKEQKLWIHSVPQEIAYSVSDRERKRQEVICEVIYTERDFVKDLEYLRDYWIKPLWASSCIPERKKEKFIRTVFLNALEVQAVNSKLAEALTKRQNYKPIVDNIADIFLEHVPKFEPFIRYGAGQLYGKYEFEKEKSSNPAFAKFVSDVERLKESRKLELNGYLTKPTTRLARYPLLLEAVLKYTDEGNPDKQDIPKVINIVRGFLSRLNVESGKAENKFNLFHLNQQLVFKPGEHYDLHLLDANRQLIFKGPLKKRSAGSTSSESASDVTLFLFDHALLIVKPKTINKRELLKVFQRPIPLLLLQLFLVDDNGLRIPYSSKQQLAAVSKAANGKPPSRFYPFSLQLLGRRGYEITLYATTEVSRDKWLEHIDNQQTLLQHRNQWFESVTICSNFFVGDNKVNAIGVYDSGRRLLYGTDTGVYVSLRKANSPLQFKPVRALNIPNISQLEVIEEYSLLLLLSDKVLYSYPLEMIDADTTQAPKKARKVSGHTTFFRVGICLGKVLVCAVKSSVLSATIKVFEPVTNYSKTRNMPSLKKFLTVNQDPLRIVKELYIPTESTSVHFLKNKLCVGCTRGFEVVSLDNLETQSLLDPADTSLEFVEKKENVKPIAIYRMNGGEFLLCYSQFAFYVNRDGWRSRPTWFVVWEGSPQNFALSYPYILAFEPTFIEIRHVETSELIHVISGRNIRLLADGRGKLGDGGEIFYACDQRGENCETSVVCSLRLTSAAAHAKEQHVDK

Target: T1, GST-Tea4 (S. pombe) (UniProt O60132)
T1 sequence: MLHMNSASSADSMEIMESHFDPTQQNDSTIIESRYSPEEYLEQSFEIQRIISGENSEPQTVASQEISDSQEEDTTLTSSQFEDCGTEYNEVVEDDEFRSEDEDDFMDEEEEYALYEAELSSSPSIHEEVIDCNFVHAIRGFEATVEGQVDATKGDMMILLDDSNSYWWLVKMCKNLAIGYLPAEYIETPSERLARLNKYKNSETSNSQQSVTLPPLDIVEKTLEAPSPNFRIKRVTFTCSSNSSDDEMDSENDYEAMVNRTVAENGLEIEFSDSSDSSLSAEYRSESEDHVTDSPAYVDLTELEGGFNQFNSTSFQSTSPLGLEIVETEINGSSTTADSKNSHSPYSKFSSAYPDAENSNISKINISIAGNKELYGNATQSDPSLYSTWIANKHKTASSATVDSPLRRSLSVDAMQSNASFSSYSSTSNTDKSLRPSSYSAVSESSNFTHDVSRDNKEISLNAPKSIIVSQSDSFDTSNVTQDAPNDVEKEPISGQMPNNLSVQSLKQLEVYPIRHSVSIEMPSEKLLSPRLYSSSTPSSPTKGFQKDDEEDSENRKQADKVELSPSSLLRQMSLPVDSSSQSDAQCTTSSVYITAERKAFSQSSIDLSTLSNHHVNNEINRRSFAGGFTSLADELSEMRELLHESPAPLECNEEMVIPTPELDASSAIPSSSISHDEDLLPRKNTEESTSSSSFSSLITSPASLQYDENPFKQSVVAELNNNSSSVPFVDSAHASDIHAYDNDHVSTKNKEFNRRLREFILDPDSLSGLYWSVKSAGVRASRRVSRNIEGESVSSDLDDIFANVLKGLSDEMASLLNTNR
Test: pull-down

Substance	binding
Rgf1ΔPH-GFP (from UniProt Q9Y7U6)	binds
Rgf1ΔPTTR-HA (from UniProt Q9Y7U6)	binds
